Results published in the supplement of paper PMC12067093, “Discovery and optimisation of a covalent ligand for TRIM25 and its application to targeted protein ubiquitination” (Chemical Science, 2025).
The list shows a part of the results.

Sequences of proteins named here, by UniProt entry; tags and fusion partners are left off. A change or cut given only in a name is not applied to a line headed by its entry.
UniProt Q9NXG2: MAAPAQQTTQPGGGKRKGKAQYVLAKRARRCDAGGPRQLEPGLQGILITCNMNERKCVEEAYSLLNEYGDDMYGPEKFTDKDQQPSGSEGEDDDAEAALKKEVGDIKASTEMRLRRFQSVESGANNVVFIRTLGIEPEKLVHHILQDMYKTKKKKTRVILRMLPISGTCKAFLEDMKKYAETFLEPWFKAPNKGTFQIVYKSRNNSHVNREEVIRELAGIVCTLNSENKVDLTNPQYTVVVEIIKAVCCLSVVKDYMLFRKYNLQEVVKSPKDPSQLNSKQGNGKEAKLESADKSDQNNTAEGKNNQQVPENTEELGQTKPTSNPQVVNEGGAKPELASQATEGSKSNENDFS
UniProt Q8NHU6: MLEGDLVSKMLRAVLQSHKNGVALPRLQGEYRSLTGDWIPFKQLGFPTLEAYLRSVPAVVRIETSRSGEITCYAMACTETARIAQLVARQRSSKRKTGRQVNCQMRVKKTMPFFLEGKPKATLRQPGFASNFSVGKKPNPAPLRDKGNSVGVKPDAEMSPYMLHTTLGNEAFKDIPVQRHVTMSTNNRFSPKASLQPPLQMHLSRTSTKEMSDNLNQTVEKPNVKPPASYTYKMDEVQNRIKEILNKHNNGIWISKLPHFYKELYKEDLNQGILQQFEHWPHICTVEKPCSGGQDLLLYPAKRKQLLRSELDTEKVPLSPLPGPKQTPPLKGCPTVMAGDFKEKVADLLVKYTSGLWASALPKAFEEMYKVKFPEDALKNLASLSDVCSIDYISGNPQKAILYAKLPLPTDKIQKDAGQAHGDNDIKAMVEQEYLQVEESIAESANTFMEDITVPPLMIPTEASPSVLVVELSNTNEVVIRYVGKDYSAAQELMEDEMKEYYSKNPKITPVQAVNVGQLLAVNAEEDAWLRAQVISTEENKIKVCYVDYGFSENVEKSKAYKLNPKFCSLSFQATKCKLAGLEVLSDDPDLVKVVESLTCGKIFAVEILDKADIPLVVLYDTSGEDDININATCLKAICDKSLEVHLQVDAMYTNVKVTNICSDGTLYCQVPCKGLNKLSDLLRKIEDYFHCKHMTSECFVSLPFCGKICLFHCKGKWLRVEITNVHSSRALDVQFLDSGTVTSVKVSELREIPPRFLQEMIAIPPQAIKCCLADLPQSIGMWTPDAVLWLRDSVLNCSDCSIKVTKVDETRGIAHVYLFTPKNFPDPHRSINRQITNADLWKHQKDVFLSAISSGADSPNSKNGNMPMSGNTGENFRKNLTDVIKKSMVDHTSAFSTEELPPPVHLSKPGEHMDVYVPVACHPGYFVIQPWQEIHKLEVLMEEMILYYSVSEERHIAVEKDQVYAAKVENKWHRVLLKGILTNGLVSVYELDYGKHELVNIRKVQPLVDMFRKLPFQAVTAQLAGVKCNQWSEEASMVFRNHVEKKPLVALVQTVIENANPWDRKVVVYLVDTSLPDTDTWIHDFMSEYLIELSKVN
UniProt Q96J01: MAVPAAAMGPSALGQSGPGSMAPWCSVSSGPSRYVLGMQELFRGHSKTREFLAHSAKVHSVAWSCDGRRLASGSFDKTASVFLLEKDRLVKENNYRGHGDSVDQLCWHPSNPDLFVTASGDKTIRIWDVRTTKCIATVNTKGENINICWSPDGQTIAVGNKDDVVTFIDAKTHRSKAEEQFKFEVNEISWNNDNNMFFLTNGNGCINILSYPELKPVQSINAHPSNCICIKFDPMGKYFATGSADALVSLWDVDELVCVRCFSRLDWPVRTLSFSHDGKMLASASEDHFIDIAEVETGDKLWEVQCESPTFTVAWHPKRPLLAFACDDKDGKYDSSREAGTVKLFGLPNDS
UniProt Q8NI27: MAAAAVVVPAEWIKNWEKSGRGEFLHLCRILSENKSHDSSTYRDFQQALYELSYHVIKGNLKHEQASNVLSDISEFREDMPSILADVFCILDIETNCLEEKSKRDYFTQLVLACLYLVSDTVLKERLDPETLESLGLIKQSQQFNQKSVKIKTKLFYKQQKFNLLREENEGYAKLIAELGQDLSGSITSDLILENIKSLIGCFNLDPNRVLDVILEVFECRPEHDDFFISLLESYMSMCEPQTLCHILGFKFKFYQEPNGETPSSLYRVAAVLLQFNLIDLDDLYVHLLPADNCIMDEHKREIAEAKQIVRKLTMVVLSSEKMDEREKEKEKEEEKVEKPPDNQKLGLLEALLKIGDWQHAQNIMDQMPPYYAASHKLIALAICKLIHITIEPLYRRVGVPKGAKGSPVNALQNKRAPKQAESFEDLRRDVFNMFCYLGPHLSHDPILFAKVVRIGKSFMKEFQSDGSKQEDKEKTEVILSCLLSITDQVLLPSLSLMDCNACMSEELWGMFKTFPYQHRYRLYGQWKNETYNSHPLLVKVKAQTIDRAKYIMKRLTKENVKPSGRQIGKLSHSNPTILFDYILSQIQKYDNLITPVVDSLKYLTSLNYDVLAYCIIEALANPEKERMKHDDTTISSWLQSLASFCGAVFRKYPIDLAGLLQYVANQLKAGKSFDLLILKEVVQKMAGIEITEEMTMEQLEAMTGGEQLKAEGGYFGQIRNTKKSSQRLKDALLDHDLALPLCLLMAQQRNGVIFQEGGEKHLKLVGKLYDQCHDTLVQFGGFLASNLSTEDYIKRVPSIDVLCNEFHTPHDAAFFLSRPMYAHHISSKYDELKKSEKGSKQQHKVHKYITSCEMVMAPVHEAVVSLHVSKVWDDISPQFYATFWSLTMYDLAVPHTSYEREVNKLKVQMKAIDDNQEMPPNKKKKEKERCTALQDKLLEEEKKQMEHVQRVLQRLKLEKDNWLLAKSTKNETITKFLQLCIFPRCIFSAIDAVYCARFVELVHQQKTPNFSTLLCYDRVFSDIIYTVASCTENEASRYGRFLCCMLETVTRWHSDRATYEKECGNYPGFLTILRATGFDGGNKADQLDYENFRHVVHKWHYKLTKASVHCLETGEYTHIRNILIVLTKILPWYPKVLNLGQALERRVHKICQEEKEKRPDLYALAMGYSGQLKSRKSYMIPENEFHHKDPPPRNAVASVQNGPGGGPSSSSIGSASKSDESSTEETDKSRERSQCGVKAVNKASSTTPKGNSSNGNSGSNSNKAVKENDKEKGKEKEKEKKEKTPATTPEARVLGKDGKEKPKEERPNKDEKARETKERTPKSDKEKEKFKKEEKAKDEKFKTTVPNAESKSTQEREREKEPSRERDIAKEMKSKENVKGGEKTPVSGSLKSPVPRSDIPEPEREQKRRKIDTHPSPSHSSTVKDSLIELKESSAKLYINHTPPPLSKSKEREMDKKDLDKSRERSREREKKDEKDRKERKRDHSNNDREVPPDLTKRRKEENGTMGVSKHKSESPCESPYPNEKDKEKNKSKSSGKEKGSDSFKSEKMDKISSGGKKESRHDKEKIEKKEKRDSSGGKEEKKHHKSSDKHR
UniProt P04183: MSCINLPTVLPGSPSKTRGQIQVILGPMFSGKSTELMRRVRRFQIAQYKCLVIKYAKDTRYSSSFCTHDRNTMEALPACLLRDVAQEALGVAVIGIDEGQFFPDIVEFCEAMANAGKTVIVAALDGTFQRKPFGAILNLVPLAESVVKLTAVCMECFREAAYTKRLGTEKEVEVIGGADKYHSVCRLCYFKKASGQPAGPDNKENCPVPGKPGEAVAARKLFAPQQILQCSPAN
UniProt Q96RS0: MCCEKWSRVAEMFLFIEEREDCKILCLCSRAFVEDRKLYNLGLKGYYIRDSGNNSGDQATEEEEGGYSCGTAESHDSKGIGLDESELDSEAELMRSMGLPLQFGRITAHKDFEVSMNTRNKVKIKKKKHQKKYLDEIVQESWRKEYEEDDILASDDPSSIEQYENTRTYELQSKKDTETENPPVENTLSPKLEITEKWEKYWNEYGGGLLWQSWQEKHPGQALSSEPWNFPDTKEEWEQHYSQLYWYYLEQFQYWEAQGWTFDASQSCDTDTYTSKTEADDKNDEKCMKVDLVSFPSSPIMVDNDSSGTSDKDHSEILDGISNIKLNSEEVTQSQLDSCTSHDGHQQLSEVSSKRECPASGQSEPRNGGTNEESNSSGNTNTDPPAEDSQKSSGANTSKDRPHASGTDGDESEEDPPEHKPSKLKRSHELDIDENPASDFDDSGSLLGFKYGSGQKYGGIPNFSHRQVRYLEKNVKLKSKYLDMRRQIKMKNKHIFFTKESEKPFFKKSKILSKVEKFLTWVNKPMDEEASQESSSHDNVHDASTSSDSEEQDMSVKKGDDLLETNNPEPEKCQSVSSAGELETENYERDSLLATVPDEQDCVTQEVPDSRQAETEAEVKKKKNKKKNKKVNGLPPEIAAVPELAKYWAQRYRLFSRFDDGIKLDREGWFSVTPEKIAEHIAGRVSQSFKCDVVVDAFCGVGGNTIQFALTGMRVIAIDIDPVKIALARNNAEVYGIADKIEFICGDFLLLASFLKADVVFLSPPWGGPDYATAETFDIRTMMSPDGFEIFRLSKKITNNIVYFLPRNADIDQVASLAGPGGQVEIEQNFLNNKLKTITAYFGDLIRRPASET
UniProt Q6YHU6: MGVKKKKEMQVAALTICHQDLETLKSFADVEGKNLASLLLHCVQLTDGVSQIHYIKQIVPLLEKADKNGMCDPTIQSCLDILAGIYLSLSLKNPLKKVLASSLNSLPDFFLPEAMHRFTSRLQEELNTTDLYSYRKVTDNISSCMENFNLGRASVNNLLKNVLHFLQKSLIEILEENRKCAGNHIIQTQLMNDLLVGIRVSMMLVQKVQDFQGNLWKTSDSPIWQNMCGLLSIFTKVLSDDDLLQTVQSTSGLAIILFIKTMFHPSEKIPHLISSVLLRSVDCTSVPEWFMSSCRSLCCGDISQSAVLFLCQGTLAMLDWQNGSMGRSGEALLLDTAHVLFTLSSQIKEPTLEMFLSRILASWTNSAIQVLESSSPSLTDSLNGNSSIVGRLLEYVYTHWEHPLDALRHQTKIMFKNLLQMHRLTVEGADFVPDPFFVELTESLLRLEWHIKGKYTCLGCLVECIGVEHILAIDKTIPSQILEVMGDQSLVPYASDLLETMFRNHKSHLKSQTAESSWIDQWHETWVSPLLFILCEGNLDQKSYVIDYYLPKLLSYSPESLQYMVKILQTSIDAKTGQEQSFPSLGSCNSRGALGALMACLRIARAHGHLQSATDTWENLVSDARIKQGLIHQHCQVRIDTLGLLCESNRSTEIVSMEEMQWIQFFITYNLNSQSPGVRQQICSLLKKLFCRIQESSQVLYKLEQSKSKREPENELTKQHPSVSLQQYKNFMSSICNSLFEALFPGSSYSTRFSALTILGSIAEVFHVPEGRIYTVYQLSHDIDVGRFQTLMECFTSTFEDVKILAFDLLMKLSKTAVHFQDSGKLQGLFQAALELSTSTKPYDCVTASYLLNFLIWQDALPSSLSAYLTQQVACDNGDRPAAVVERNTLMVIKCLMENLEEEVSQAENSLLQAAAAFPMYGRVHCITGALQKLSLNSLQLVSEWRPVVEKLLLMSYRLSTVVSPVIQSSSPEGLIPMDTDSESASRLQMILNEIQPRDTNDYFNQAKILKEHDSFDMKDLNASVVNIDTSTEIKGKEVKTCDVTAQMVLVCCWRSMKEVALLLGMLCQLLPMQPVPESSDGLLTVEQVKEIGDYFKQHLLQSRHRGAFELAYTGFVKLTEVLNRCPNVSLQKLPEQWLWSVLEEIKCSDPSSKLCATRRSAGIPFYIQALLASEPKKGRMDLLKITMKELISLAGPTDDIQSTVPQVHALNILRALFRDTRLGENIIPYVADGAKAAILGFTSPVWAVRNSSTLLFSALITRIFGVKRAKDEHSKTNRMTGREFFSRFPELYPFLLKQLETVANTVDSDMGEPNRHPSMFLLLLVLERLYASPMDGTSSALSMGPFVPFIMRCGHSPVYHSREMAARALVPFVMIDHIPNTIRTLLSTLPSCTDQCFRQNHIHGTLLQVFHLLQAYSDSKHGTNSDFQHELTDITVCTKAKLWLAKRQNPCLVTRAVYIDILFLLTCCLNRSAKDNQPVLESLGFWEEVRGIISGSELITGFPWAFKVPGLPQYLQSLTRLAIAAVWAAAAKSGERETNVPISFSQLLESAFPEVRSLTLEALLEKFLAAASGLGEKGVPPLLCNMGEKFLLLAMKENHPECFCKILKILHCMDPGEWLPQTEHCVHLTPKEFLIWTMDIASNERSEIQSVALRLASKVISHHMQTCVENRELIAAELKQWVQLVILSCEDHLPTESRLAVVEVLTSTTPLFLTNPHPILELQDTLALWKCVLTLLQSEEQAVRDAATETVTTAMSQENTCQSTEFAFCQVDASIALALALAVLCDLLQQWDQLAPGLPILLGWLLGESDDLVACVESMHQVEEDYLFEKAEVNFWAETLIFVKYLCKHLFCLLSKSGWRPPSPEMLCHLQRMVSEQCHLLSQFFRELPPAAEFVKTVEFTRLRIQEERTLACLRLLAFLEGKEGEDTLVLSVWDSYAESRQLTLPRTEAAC

Compound: CC1Cc2ccccc2N1C(=O)C1CCCN(C1)C(=O)CCl (mixture of isomers) [TRIM25 ligand 11 (diastereomer mixture)]
Experiment: probe-labelled cysteine peptide fold change vs DMSO (competition) (log2 fold change); higher = less target engagement (more negative = stronger competition)
Conditions: THP-1, incubation time: 4 h
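Note: competitive chemoproteomic profiling in live THP-1 cells with an iodoacetamide desthiobiotin (IA-DTB) probe, comparing probe-labelled peptide intensities in compound-treated cells against DMSO-treated controls.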

Row | Target | probe-labelled cysteine peptide fold change (10 µM) | probe-labelled cysteine peptide fold change (50 µM)
1 | TK2_O00142_54_SVICVEGNIASGK (UniProt O00142) | -0.14 | -0.122
2 | THOP1_P52888_18_MKPPAACAGDMADAASPCSVVNDLR (UniProt P52888) | -0.154 | -0.415
3 | TKT_P29401_225_RCEAFGWHAIIVDGHSVEELCK (UniProt P29401) | -0.0561 | 0.0425
4 | THUMPD1_Q9NXG2_169_MLPISGTCK (UniProt Q9NXG2) | 0.0629 | -0.0638
5 | TDP1_Q9NUW8_135_TENHGAPACHR (UniProt Q9NUW8) | -0.0251 | -0.116
6 | TDRD7_Q8NHU6_284_ELYKEDLNQGILQQFEHWPHICTVEK (UniProt Q8NHU6) | -0.365 | -0.43
7 | THAP12_O43422_68_HFETSMICR (UniProt O43422) | 0.113 | 0.109
8 | TES_Q9UGI8_412+416_FMPVEGMVFCSVECK (UniProt Q9UGI8) | -0.138 | -0.0421
9 | TDRD7_Q8NHU6_77_SGEITCYAMACTETAR (UniProt Q8NHU6) | -0.359 | -0.347
10 | THOP1_P52888_246_KVEEAFNCR (UniProt P52888) | -0.0308 | -0.0583
11 | TICRR_Q7Z2Z1_160_EAEAALGGLVNAVFLLAPCPHSQR (UniProt Q7Z2Z1) | -0.414 | -0.15
12 | THOC3_Q96J01_326_RPLLAFACDDK (UniProt Q96J01) | 0.0985 | -0.09
13 | THOC2_Q8NI27_853_YITSCEMVMAPVHEAVVSLHVSK (UniProt Q8NI27) | -0.013 | -0.0259
14 | TDG_Q13569_162_CLFMSGLSEVQLNHMDDHTLPGK (UniProt Q13569) | -0.0694 | -0.0672
15 | TIGAR_Q9NQ88_161_EQFSQGSPSNCLETSLAEIFPLGK (UniProt Q9NQ88) | -0.0683 | -0.214
16 | THOC5_Q13769_282_HLPPPLYVLFVQATAYGQACDK (UniProt Q13769) | 0.189 | 0.349
17 | THOC6_Q86W42_35_LHMTIFSQSVSPCGK (UniProt Q86W42) | -0.0538 | -0.528
18 | TK1_P04183_206_ENCPVPGKPGEAVAAR (UniProt P04183) | -0.0318 | -0.0913
19 | THOC2_Q8NI27_1045_FLCCMLETVTR (UniProt Q8NI27) | 0.00332 | 0.301
20 | THOP1_P52888_682_GLQVGGCEPEPQVC (UniProt P52888) | 0.131 | -0.0643
21 | THOC2_Q8NI27_1031_VFSDIIYTVASCTENEASR (UniProt Q8NI27) | 0.0288 | 0.0155

Row | Target | probe-labelled cysteine peptide fold change (10 µM) | probe-labelled cysteine peptide fold change (50 µM)
22 | TDRD7_Q8NHU6_290_PCSGGQDLLLYPAK (UniProt Q8NHU6) | -0.0959 | -0.0814
23 | TEPSIN_Q96N21_273_ACGLLNCEAVLQLLTCHLR (UniProt Q96N21) | -0.114 | 0.299
24 | TGS1_Q96RS0_357_ECPASGQSEPR (UniProt Q96RS0) | 0.199 | -0.0313
25 | TKFC_Q3LXA3_155_RGLCGTVLIHK (UniProt Q3LXA3) | -0.0729 | 0.00548
26 | TGS1_Q96RS0_28_ILCLCSR (UniProt Q96RS0) | -0.0199 | 0.063
27 | TET2_Q6N021_784_VEECFHGENQYSK (UniProt Q6N021) | -0.0239 | -0.151
28 | TDRD7_Q8NHU6_333_GCPTVMAGDFK (UniProt Q8NHU6) | -0.0317 | -0.308
29 | TKT_P29401_386_TVPFCSTFAAFFTR (UniProt P29401) | 0.00648 | 0.0101
30 | TKT_P29401_42_ISSIQATTAAGSGHPTSCCSAAEIMAVLFFHTMR (UniProt P29401) | -0.12 | -0.283
31 | THOC3_Q96J01_306_LWEVQCESPTFTVAWHPK (UniProt Q96J01) | -0.0367 | -0.147
32 | TK1_P04183_230_LFAPQQILQCSPAN (UniProt P04183) | 0.105 | -0.179
33 | THEMIS2_Q5TEJ8_355_DCEGEREENPEFTSLAVGDR (UniProt Q5TEJ8) | 0.0755 | -0.16
34 | THADA_Q6YHU6_42_NLASLLLHCVQLTDGVSQIHYIK (UniProt Q6YHU6) | -0.0178 | 0.0472
35 | THUMPD1_Q9NXG2_248_AVCCLSVVK (UniProt Q9NXG2) | 0.176 | 0.235
36 | TIPRL_O75663_75_CVNNYQGMLK (UniProt O75663) | 0.00317 | -0.119
37 | THG1L_Q9NWX6_47_DFEADDTCLAHCWVVVR (UniProt Q9NWX6) | -0.0507 | 0.156
38 | TIMM50_Q3ZCQ8_236_DISCLNRDPAR (UniProt Q3ZCQ8) | -0.111 | -0.129
39 | TIMM17B_O60830_17_IVDDCGGAFTMGVIGGGVFQAIK (UniProt O60830) | -0.106 | -0.246
40 | THADA_Q6YHU6_1605_ENHPECFCK (UniProt Q6YHU6) | 0.213 | 0.216
41 | TDRKH_Q9Y2W6_109_VLLISGFPVQVCK (UniProt Q9Y2W6) | -0.0187 | -0.354
42 | THOC1_Q96FV9_251_NPVQCYEK (UniProt Q96FV9) | 0.154 | 0.121

Whole records as entered above:
TK1_P04183_230_LFAPQQILQCSPAN (UniProt P04183) in the list: probe-labelled cysteine peptide fold change (10 µM) = 0.105; probe-labelled cysteine peptide fold change (50 µM) = -0.179
THOC2_Q8NI27_1031_VFSDIIYTVASCTENEASR (UniProt Q8NI27) in the list: probe-labelled cysteine peptide fold change (10 µM) = 0.0288; probe-labelled cysteine peptide fold change (50 µM) = 0.0155
